# Percent effect of library compounds

The chains behind the UniProt entries cited, without tags or fusion partners.
UniProt I6X8D2, whole entry: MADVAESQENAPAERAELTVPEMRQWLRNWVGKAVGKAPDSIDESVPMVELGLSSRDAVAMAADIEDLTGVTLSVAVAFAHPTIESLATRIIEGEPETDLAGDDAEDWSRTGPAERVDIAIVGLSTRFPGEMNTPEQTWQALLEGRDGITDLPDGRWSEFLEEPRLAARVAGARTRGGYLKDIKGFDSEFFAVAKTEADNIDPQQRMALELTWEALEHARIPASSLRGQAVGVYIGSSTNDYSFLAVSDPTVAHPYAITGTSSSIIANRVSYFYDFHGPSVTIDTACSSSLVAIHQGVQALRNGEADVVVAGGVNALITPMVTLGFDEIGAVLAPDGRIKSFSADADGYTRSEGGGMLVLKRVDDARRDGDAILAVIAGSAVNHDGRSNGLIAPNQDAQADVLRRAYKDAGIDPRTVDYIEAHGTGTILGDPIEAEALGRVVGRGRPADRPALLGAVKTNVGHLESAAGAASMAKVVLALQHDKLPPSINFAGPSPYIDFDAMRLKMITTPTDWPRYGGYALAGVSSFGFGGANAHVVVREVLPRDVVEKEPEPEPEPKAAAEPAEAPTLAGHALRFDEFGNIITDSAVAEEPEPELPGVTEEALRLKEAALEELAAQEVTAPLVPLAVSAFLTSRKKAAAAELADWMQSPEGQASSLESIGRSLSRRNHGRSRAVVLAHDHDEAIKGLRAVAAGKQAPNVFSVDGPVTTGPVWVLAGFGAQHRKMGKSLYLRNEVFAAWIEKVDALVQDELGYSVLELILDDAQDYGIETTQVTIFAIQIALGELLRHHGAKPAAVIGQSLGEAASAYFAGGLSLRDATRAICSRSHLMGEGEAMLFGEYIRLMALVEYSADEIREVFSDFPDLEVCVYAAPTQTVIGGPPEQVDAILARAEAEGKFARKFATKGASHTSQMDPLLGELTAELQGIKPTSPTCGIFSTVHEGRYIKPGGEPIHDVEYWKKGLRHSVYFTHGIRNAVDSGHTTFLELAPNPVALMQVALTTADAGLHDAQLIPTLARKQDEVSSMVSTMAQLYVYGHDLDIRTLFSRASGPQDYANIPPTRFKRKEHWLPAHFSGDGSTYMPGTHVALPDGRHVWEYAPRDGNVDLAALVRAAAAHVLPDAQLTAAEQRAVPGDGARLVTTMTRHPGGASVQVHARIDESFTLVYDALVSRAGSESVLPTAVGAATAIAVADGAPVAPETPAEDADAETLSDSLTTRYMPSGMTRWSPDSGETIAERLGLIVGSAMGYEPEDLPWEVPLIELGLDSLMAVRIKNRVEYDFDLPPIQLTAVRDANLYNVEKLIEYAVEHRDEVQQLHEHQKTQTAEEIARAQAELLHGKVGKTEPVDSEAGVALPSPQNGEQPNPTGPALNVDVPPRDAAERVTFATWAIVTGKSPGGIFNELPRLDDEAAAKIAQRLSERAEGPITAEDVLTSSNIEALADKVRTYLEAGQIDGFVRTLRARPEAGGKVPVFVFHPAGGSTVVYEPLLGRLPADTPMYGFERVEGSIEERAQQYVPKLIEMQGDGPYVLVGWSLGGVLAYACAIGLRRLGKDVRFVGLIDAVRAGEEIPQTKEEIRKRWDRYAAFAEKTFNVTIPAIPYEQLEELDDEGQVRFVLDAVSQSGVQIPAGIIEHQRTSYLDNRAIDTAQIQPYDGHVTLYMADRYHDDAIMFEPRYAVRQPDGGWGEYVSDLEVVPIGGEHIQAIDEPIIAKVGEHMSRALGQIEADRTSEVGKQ

Data taken from ChEMBL document CHEMBL3988442, “University of Dundee, Small-Polar-MMV Screening Library” (2021).

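Polyketide synthase Pks13, Mycobacterium tuberculosis (UniProt I6X8D2). Enzyme assay of the thioesterase domain of polyketide synthase 13; the read-out is not stated. Tested at 30 µM. Higher reads as stronger inhibition (inferred from which compounds were picked for retests). Of about 67,000 compounds tested this way, about 300 (0.46%) reached 50% or more in at least one test.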

Results are given as percent effect.
How 0% and 100% were set is not recorded. Most values in the screen are low, and negative values occur.
Compounds were drawn at random from those tested, without regard to their results.

structure,Percent Effect
c1coc(CN2C[C@@H]3CCCO[C@@H]3[C@H](N3CCCC3)C2)c1,-16.1%
Cn1nc2c(cc1=O)CN(CCN1CCCC1=O)CC2,7.501%
Cc1cc(C)n(CC2CCCN2C(=O)Cc2c(C)nn(C)c2C)n1 (stereo not drawn),4.053%
CC(C)Nc1nc(N2CCCC2)nc2c1CN(C)CC2,-11.27%
CC1CCc2nn(CCNC(=O)c3ccco3)c(=O)cc2C1 (stereo not drawn),-11.83%
COc1ccccc1C1Cn2c(C)cnc2CN1Cc1ccc(C)nc1 (stereo not drawn),-15.75%
CS(=O)(=O)CCCNC(=O)Nc1sc2ccccc2c1Cl,2.46%
Cc1nc(-c2cnn(C)c2)nc2c1CN(C(=O)c1cccnc1)CC2,10.88%
CC(C)(C)OC(=O)NCC1CCCCN1Cc1ccncc1 (stereo not drawn),-23.17%
Cc1nccc(NCc2cncc3c2CCN(CC2CC2)C3)n1,-15.21%
Cc1noc(C)c1C(=O)NCC(O)c1ccc(F)cc1F (stereo not drawn),-10.78%
CCCc1noc(CCCC(=O)N2CCCC(n3ccnc3C)C2)n1 (stereo not drawn),-19.04%
O=C1CN(C(=O)C2CCCOC2)CCN1Cc1ccc(Cl)cc1 (stereo not drawn),-3.494%
NC(=O)CC1CCCCN1C(=O)c1cccc(C(F)(F)F)c1 (stereo not drawn),-8.793%
CC(C)C(=O)N1CCC(Cc2nccnc2Nc2ccccn2)CC1,1.012%
O=C(c1cnc(-c2ccco2)s1)N1CCCCC1Cn1cccn1 (stereo not drawn),15.38%
c1ncn(CC2CN(Cc3ccc4c(c3)OCCO4)CCO2)n1 (stereo not drawn),-18.78%
CN(C)CCN1CCO[C@@H]2CCN(C(=O)c3cccn3C)CC[C@H]21,-20.99%
O=C(CCc1ccsc1)N1CCC(n2cc(CO)nn2)CC1,-11.89%
O=c1c(Cc2ccccc2)c(O)ccn1Cc1cccs1,-26.57%
CCCN1CCc2[nH]cnc2C12CCN(C(=O)CCn1cccn1)CC2,-12.58%
CC(C)n1cc2cc(NC(=O)CCS(C)(=O)=O)ccc2n1,3.1%
CC(C(=O)O)n1nc(C(F)(F)F)c(Cl)c1C1CC1 (stereo not drawn),-17.31%
COC(=O)c1cc2c(=O)n(C3CC3)ccc2nc1C,4.432%
CC[C@H]1CN2CC[C@H]1C[C@@H]2CNC(=O)Nc1cc(OC)cc(OC)c1,-1.742%
COCC(=O)N1CCCC(c2cccc(-n3ccnc3)n2)C1 (stereo not drawn),-11.82%
CCOc1ccc(SCCS(=O)(=O)CC)cc1,-10.81%
O=C1CC(NCc2ncc[nH]2)CN1CCc1cccc(Cl)c1 (stereo not drawn),0.647%
c1ccc(-n2cc(CN3CCCC(Cn4cncn4)C3)nn2)cc1 (stereo not drawn),-5.818%
CN(C)CCO[C@@H]1CC[C@H]2[C@H]1OCCN2C(=O)c1ccnnc1,-12.72%
O=C(C1CC=CC1)N1CCC2(CC1)OCCO2,4.584%
C[S+]([O-])c1nncn1CC(=O)c1ccc(Cl)c(Cl)c1 (stereo not drawn),-26.39%
NC(=O)c1ccc(NC(=O)CCN2CCCC(N3CCCC3)C2)cc1 (stereo not drawn),-25.21%
CCOc1ccc(NC(=O)Nc2cnc(N3CCOCC3)nc2)cc1,-20.48%
CC(=O)N1CCC(NC(=O)c2ccc3c(c2O)OC(C)(C)C3)CC1,15.27%
Cn1cc(CCNC(=O)N2CCCC(c3nncn3C)C2)cn1 (stereo not drawn),-13.41%
CCOc1ccccc1C(C(=O)O)N(C)Cc1nnc(C)o1 (stereo not drawn),0.9722%
CN(C)c1ccc(CN(CC2CCCO2)C(=O)c2csnn2)cc1 (stereo not drawn),-19.82%
O=c1[nH]nc(CNc2ncc(Br)cn2)[nH]1,-0.3571%
Cc1cccc(CNC(=O)c2cccnc2N)c1,-231.3%
CC(=O)N(Cc1noc(C)n1)C1CCN(CC2CCCC2)C1 (stereo not drawn),-0.7695%
Cc1nc(CNC(=O)N(C)Cc2cnn(C)c2)cs1,-22.22%
O=C(CN1CCCS1(=O)=O)NCCOc1ccc2c(c1)CCC2,2.012%
CC(=O)NCCNC(=O)CN1CCCC1Cn1nc(C)nc1C (stereo not drawn),-11.2%
CCOC(=O)[C@H]1CNC[C@@H]1C(=O)OCC,-5.888%
Cc1cc(C2CCCN(CC(=O)N3CCCc4ccccc43)C2)n[nH]1 (stereo not drawn),-38.21%
O=C(Cc1ccsc1)N1CCCC2(COCCN(CC3CC3)C2)C1 (stereo not drawn),5.268%
O=C(C[C@@H]1COC[C@H]2CN(Cc3cccnc3)C[C@@H]12)NCC1CC1,0.2958%
Cc1cccc(CN2CCC(NCC3CNc4cc(C)nn4C3)CC2)c1 (stereo not drawn),-27.61%
CCN(CC)C(=O)CN1CCCC1c1nc(C)c2c(n1)N(C)C(=O)CC2 (stereo not drawn),2.666%
CC(C)c1noc(-c2ccc(-n3cnc(C(=O)O)c3)nc2)n1,-10.66%
O=C(NC1CCCC1)[C@@H]1CN(Cc2nccs2)C[C@H]2OCC[C@H]21,-23.57%
COCC(=O)N1CCCC1c1cccc(Nc2ncc(C)s2)n1 (stereo not drawn),-17.33%
Cc1cccc(CN2C[C@@H](C)[C@@]3(CCN(CC(=O)N(C)C)C3=O)C2)c1,-30.87%
CCc1nnc2ccc(N3CCN(S(=O)(=O)c4ccc(Cl)s4)CC3)nn12,0.667%
CCN(CC)CCc1nc2c([nH]1)CC(c1ccc(Cl)cc1)CNC2=O (stereo not drawn),-16.62%
COc1ccccc1C1=NOC(CC2(C(=O)O)CCOCC2)C1 (stereo not drawn),9.017%
Cc1cc(-n2cccn2)ccc1CN1CCC(O)(CN2CCCCC2)C1 (stereo not drawn),19.9%
CC(C)c1nnc(NC(=O)N(C)Cc2ccncc2)s1,-3.423%
CNC(=O)c1cc2c(nc1NC(C)C)CCNCC2,73.56%
CN(C)C(=O)CO[C@@H]1CC[C@H]2[C@H]1OCCN2C(=O)C1CCOCC1,-1.732%
CN(Cc1ccccn1)C1CC2(CCN(Cc3ccccn3)CC2)C1,-1.038%
CCN(c1ccc(C(=O)N2CCC(C(N)=O)CC2)cc1)S(=O)(=O)CC,-3.763%
O=C(COc1ccccc1)N1C[C@@H]2COC[C@]2(COc2cccnc2)C1,-12.44%
COCCNC(=O)c1ccoc1CN1c2ccccc2CC1C (stereo not drawn),5.403%
Fc1cnc(N2C[C@@H]3COC[C@]3(COc3ccccn3)C2)nc1,-17.36%
O=C(NCc1cc(Br)cs1)Nc1cn[nH]c1,8.672%
Cc1ccc2c(c1)C(NC(=O)N(C)C)CC21CCN(C(C)C)CC1 (stereo not drawn),-36.35%
CN(Cc1nnnn1C1CC1)c1cccc2ccccc12,-24.49%

For reference, 6 entries once more:

* O=c1[nH]nc(CNc2ncc(Br)cn2)[nH]1 | -0.3571%
* CCOc1ccccc1C(C(=O)O)N(C)Cc1nnc(C)o1 (stereo not drawn) | 0.9722%
* COc1ccccc1C1=NOC(CC2(C(=O)O)CCOCC2)C1 (stereo not drawn) | 9.017%
* CNC(=O)c1cc2c(nc1NC(C)C)CCNCC2 | 73.56%
* O=C(Cc1ccsc1)N1CCCC2(COCCN(CC3CC3)C2)C1 (stereo not drawn) | 5.268%
* O=c1c(Cc2ccccc2)c(O)ccn1Cc1cccs1 | -26.57%